# Assay results reported in PubChem BioAssay AID504834 (National Center for Advancing Translational Sciences (NCATS), 2011).
# The whole screen tested about 320,000 compounds, of which about 22,000 (6.9%) were called active. Inconclusive results, whose numbers are uncertain, are shown with a selection of clear calls. The call rests on the fitted dose curve; in most records, active means well fitted inhibition curve with a large enough effect; inconclusive means small, poorly fitted or top-dose-only effect, or another doubt; inactive means no such curve, though single readings can be large or run the other way. Where the call is inconclusive, the potency comes from a doubtful curve fit.
# Test: Primary qHTS for delayed death inhibitors of the malarial parasite plastid, 96 hour incubation
# Conditions: P. falciparum luciferase reporter growth; series mostly up to 28.7 µM
# Summary of the method: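 96 h incubation, 37 C, 5% CO2, of luciferase-reporter P. falciparum-infected RBCs (2% hematocrit, 0.05% parasitemia final) with test compounds; endpoint luminescence.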
# On the % scale 0 is the no-effect control and ±100 the full control effect; potency means the concentration at half of the fitted maximal effect.
Structure (SMILES),Potency,"activity change, negative = inhibition"
Cc1[nH]ncc1-c1ccccc1Cl,inactive,–
N#C[C@@H]1[C@@H]2C(=O)N(c3ccc4c(c3)OCCO4)C(=O)[C@@H]2C2c3ccccc3C=CN21 (stereo partly drawn),inactive,–
CCn1c(/N=C/c2ccccc2NS(=O)(=O)c2ccc(C)cc2)nc2ccccc21,"inconclusive: 13.1 µM [inhibitor, single point]",–
O=C(NC(Cc1c[nH]c2ccccc12)C(=O)Nc1ccc(F)cc1)c1cccs1 (stereo not drawn),"inconclusive: 4.65 µM [inhibitor, partial curve, poor fit]",–
CSc1ccccc1NC(=O)CSc1nnc(COc2ccccc2)o1,"inconclusive: 0.657 µM [inhibitor, full curve, poor fit]",–
O=C(NC12CC3CC(CC(C3)C1)C2)c1ccc(S(=O)(=O)N2CCOCC2)cc1,"inconclusive: 1.04 µM [inhibitor, full curve, poor fit]",–
COc1ccc(CNC(=O)c2cc(-c3cc(C)cc(C)c3O)n[nH]2)cc1,"inconclusive: 0.465 µM [inhibitor, partial curve, poor fit]",–
CS(=O)(=O)c1ccc(Cl)c(NC(=O)Cc2c(Cl)cccc2Cl)c1,"inconclusive: 0.0828 µM [inhibitor, full curve, poor fit]",–
COc1ccccc1NS(=O)(=O)c1ccc(C(=O)NCC(c2ccco2)N(C)C)cc1 (stereo not drawn),inactive,–
N=c1n(CC(=O)c2ccc([N+](=O)[O-])cc2)c2ccccc2n1Cc1ccccc1,"inconclusive: 11.7 µM [inhibitor, single point]",–
Cc1ccccc1C(=O)Nc1ccnn1C1CCN(CC2CC=CCC2)CC1 (stereo not drawn),active: 14.7 µM,–
Cc1cc(C)c[n+](CC(=O)c2ccc(NC(=O)c3ccccc3)cc2)c1,inactive,–
CCn1c(=N)n(CC(O)c2ccccc2)c2ccccc21 (stereo not drawn),inactive,–
COc1ccccc1NC(=O)C1=C(C)Nc2nnnn2C1c1ccncc1 (stereo not drawn),"inconclusive: 4.65 µM [inhibitor, partial curve]",–
CCN1CCN(C(=O)C2CCCN(S(=O)(=O)c3cccc4nsnc34)C2)CC1 (stereo not drawn),"inconclusive: 18.5 µM [inhibitor, single point]",–
CCOC(=O)N1CCN(C(=O)CSc2nnc(C3COc4ccccc4O3)o2)CC1 (stereo not drawn),"inconclusive: 8.28 µM [inhibitor, partial curve]",–
CC(C)OCCCNC(=O)c1cc(Sc2ccc(F)cc2)nc2ccccc12,active: 3.29 µM,–
CCC(=O)Nc1cccc(C2=NOC3(C2)C[C@H](C(N)=O)N(C(=O)c2ccc(Cl)cc2)C3)c1 (stereo partly drawn),inactive,–
N#Cc1ccccc1COC(=O)CCCC1=NS(=O)(=O)c2ccccc2N1,"inconclusive: 10.4 µM [inhibitor, partial curve, poor fit]",–
O=C(CSc1cccc[n+]1[O-])Nc1ccccc1Oc1ccccc1,"inconclusive: 1.17 µM [inhibitor, full curve]",–
CCOc1cc(/C=C/c2nc3ccccc3c(=O)[nH]2)ccc1O,inactive,–
CCOC(=O)C(NC(=O)c1ccccc1Cl)(Nc1ccc(C)c(C)c1)C(F)(F)F (stereo not drawn),inactive,–
Cc1cc(NCCCn2ccnc2)n2nc(C)c(-c3ccc(Cl)cc3)c2n1,inactive,–

Structure (SMILES),Potency,"activity change, negative = inhibition"
Cc1ccc(-c2cc(-c3ccccc3)cc(-c3ccccc3)[n+]2-c2ccc(C(=O)O)cc2)cc1,"inconclusive: 11.7 µM [inhibitor, single point]",–
CC(C)CN(CCCNC(=O)CN1N=C(c2ccc(Cl)cc2)CCC1=O)CC(C)C,"inconclusive: 16.5 µM [inhibitor, single point]",–
O=C(Nc1nc(-c2ccccc2)cs1)c1ccco1,inactive,–
COc1ccc2cc(C3(C)NC(=O)N(CC(=O)NCCC4=CCCCC4)C3=O)ccc2c1 (stereo not drawn),"inconclusive: 13.1 µM [inhibitor, partial curve]",–
O=C1CC(c2ccc(F)cc2)Cc2nc(NCC3CCCO3)ncc21 (stereo not drawn),"inconclusive: 5.22 µM [inhibitor, partial curve, poor fit]",–
O=C(COc1coc(CN2CCN(c3ccc(F)cc3)CC2)cc1=O)NC1CCCC1,"inconclusive: 11.7 µM [inhibitor, single point]",–
Cc1cccc(OCC(=O)NCCNC(=O)c2ccncc2)c1,"inconclusive: 18.5 µM [inhibitor, single point]",–
CCCN(C(=O)COC(=O)CCOc1ccccc1C)c1c(N)n(Cc2ccccc2)c(=O)[nH]c1=O,inactive,–
COc1ccccc1N1CCN(C2CCCN(C(=O)CCn3cncn3)C2)CC1 (stereo not drawn),"inconclusive: 0.0131 µM [inhibitor, partial curve, poor fit]",–
CCN(C(=O)CSc1cc(C)c2ccccc2n1)C1CCS(=O)(=O)C1 (stereo not drawn),"inconclusive: 0.165 µM [inhibitor, partial curve, poor fit]",–
Cc1nc(NC(=O)C2CCCCC2C(=O)O)sc1C (stereo not drawn),"inconclusive: 18.5 µM [inhibitor, single point]",–
Cc1ccc2nc(SCC(=O)c3c(N)n(C4CC4)c(=O)[nH]c3=O)[nH]c2c1,"inconclusive: 9.28 µM [inhibitor, single point]",–
Cn1c(SCC(=O)N2CCN(C(=O)c3ccco3)CC2)nnc1-c1ccc(NS(C)(=O)=O)cc1,"inconclusive: 11.7 µM [inhibitor, single point]",–
Cc1nc(NS(=O)(=O)c2ccccc2)sc1C(C)(C)C,"inconclusive: 18.5 µM [inhibitor, single point]",–
O=c1[nH]c(SCc2cccc(F)c2)nc2c1CCCC2,"inconclusive: 20.8 µM [inhibitor, partial curve, poor fit]",–
FC(F)(F)c1ccccc1CN1CCCC(N2CCN(c3ccccc3)CC2)C1 (stereo not drawn),inactive,–
O=C(c1cc2ccccc2cc1OCC(O)CN1CCCCC1)N1CCCCC1 (stereo not drawn),inactive,–
O=C(Nc1nnc(-c2cccs2)o1)c1ccc(S(=O)(=O)N2CCOCC2)cc1,"inconclusive: 7.38 µM [inhibitor, partial curve, poor fit]",–
CCOC(=O)N1CCC(NC(=O)CS(=O)Cc2nc(-c3ccc(Cl)cc3)oc2C)CC1 (stereo not drawn),"inconclusive: 1.04 µM [inhibitor, partial curve, poor fit]",–
COc1ccc(/C=N/Nc2ncc(C(F)(F)F)cc2Cl)cc1OC,inactive,–
O=C(Oc1ccc(-c2nnco2)cc1)C1CCN(C(=O)c2ccc(F)cc2)CC1,inactive,–
O=C(NC1CCC(=O)N(CCOc2ccccc2)CC1)OCc1ccccc1 (stereo not drawn),"inconclusive: 9.28 µM [inhibitor, single point]",–
Cc1cc(=O)oc(C)c1C(=O)N1CCN(C(c2ccccc2)c2ccccc2)CC1,active: 9.28 µM,–

Structure (SMILES),Potency,"activity change, negative = inhibition"
O=C(COCc1cc(-c2ccc3c(c2)OCO3)on1)N1CCN(c2cccc(Cl)c2)CC1,"inconclusive: 18.5 µM [inhibitor, single point]",–
CCOC(=O)c1c(C(=O)OCC)c(C)n(N2C(=O)CSC2=S)c1C,"inconclusive: 18.5 µM [inhibitor, partial curve, poor fit]",–
Cc1cc(C)c(NC(N)=S)c(C)c1,inactive,–
COc1ccc(-c2noc(C3CCCN(C(=O)c4ccccc4OC)C3)n2)cc1 (stereo not drawn),"inconclusive: 2.94 µM [inhibitor, partial curve, poor fit]",–
CN1CC=C(/C=C/c2ccc(-c3ccccc3)cc2)CC1,active: 13.1 µM,–
CCCN(Cc1cc2ccc(C)cc2[nH]c1=O)C(=O)c1ccccn1,"inconclusive: 13.1 µM [inhibitor, single point]",–
Cc1ccc(N(C)C(=O)N2CCN(S(=O)(=O)c3ccc(C)cc3)CC2)cc1,"inconclusive: 18.5 µM [inhibitor, single point]",–
COc1ccccc1C(CNc1nc(C(F)(F)F)nc2ccccc12)N(C)C (stereo not drawn),"inconclusive: 18.5 µM [inhibitor, single point]",–
Clc1ccc2ccc3cccnc3c2n1,"inconclusive: 4.65 µM [inhibitor, partial curve]",–
O=C(COC(=O)c1ccccc1)Nc1cc(Cl)ccc1Oc1ccccc1,"inconclusive: 18.5 µM [inhibitor, single point]",–
COc1ccccc1N(Cc1ccccc1)S(=O)(=O)c1cccc(C(=O)NC2CC(C)(C)NC(C)(C)C2)c1,active: 4.65 µM,–
O=C(N/N=C/c1ccc([N+](=O)[O-])cc1)c1cccs1,inactive,–
CC(C)C(=O)NC(=O)COC(=O)/C=C/c1cccs1,inactive,–
Cc1c(C(=O)N2CCNCC2)oc2ccccc12,inactive,–
Cc1[nH]n(-c2ccccc2)c(=O)c1N=Nc1c(Cl)cccc1Cl,"inconclusive: 18.5 µM [inhibitor, single point]",–
COc1ccccc1C(CNC(=O)c1cccc(S(=O)(=O)NCc2ccccc2)c1)N(C)C (stereo not drawn),"inconclusive: 9.28 µM [inhibitor, single point]",–
CC(Oc1ccc(Cl)cc1Cl)C(=O)OCC(=O)c1c(N)n(C)c(=O)n(C)c1=O (stereo not drawn),"inconclusive: 18.5 µM [inhibitor, single point]",–
NC(=O)c1nsc(C(=O)N(CC(=O)NC2CCCCC2)c2ccc(Cl)cc2)c1N,"inconclusive: 11.7 µM [inhibitor, partial curve]",–
O=C(NNc1cccc(Cl)n1)Nc1ccccc1F,–,inactive: 57.3% [at 5.75 µM]
CCCCSc1nnc(CSc2ncccn2)n1C,"inconclusive: 3.7 µM [inhibitor, partial curve, poor fit]",–
COc1cc(OC)c(OC)cc1/C=C1\C(=O)NC(=O)N(Cc2ccccc2)C1=O,"inconclusive: 8.28 µM [inhibitor, partial curve, poor fit]",–
CCCc1cc(C(=O)N2CCCC(C(=O)c3cccc4ccccc34)C2)n(C)n1 (stereo not drawn),"inconclusive: 14.7 µM [inhibitor, partial curve, poor fit]",–

# A different layout for some results above:
Structure (SMILES)	Potency	activity change, negative = inhibition
CC(Oc1ccc(Cl)cc1Cl)C(=O)OCC(=O)c1c(N)n(C)c(=O)n(C)c1=O (stereo not drawn)	inconclusive: 18.5 µM [inhibitor, single point]	–
NC(=O)c1nsc(C(=O)N(CC(=O)NC2CCCCC2)c2ccc(Cl)cc2)c1N	inconclusive: 11.7 µM [inhibitor, partial curve]	–
O=C(NNc1cccc(Cl)n1)Nc1ccccc1F	–	inactive: 57.3% [at 5.75 µM]
CCCCSc1nnc(CSc2ncccn2)n1C	inconclusive: 3.7 µM [inhibitor, partial curve, poor fit]	–
